No constants are given. Whether binding was seen depends on the method and setting. Some binding calls cover weakened binding; strength is not graded here.
Biological target: Aβ (UniProt P05067)
Assay: sequestration of Aβ from solutions with serum

Protein sequences, listed by entry. Tags and fused reporters are not part of them. Residues count along the entry.
UniProt P05067, residues 672-713: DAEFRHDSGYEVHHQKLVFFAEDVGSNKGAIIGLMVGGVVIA

binding	Binder
binds	FSSMPDPVDPTTVTKTFKTRKASAQASLASKDKTPKSKSK [Peptide P4]
binds	KTFKTRKASAQASLASKDKTPKSKSKKRNSTQLKSRVKNI [Peptide P4-5]
binds	KDKTPKSKSKKRNSTQLKSRVKNITHARRILQQSNRNACN [Peptide P5]

Source: patent publication US20110300141A1
